Assay results: patent US20240034776A1
No constants are given. Whether binding was seen depends on the method and setting. Some binding calls cover weakened binding; strength is not graded here. Where a sequence is shown, tags or fusion partners need not be part of it.

The chains behind the UniProt entries cited, without tags or fusion partners. Residues count along the entry.
UniProt P07766, residues 23-126: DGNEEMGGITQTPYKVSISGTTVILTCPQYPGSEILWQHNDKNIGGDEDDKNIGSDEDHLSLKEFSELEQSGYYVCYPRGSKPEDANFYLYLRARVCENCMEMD

Tests used:
[1] = biological target: T1, Flag-tagged full-length human ITPRIPL1 (expressed from pcDNA3.1 in transfected cells) (human) (UniProt Q6GPH6); test: flow cytometry on HCT116-ITPRIPL1 cells (legend of FIG. 13 and FIG. 14)
T1 sequence: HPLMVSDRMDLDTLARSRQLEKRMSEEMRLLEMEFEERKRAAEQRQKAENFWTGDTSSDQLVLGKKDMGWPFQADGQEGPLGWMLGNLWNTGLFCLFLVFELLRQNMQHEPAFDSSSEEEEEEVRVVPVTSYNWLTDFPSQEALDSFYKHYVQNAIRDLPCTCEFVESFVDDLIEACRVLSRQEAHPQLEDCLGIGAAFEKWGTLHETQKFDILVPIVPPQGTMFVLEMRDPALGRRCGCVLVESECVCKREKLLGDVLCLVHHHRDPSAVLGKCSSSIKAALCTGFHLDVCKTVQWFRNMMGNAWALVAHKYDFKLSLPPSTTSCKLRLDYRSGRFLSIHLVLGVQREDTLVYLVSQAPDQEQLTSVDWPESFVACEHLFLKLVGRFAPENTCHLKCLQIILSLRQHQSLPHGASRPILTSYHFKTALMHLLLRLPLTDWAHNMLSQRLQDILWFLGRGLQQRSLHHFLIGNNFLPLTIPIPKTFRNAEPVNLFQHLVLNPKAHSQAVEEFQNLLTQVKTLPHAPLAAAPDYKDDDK

[2] = biological target: T1, Flag-tagged full-length human ITPRIPL1 (expressed from pcDNA3.1 in transfected cells) (human); test: flow cytometry on HCT116-ITPRIPL1 cells, 2 µg/ml CD3E-human Fc

binding [1]: binds
binding [2]: binds
Substance: CD3E-human Fc protein (Sino Biological) (from UniProt P07766 23-126) (Fc fusion)
